Data from patent US11999746B2, “Compounds” (GlaxoSmithKline Intellectual Property Development Limited, priority 2014, dated 2024).
Structures can show the parent of a compound that is named as a salt. Some of these results come from one statement about several compounds together.

target: Recombinant human PLA2 VIIB (Novel Serine Dependent Lipase, NSDL) (Homo sapiens, UniProt Q99487); test: (2a) PLA2 VIIB assay (PED6 substrate); type: biochemical; details: Examples 1-9, 11-105, 107-193, 203-259 and 413-430 were tested here

Selectivity between human recombinant Lp-PLA2 and PLA2 VIIB, at least 100 fold:
O=c1nc(OCc2cc(F)c(Oc3ccnc(C(F)(F)F)c3)c(F)c2)cc2n1CC1OCCCN21 (single isomer, unassigned) [Example E162, 7-((3,5-difluoro-4-((2-(trifluoromethyl)pyridin-4-yl)oxy)benzyl)oxy)-3,4,11,11a-tetrahydropyrimido[6′,1′:2,3]imidazo[5,1-b][1,3]oxazin-9(2H)-one]
O=c1nc(OCc2cc(F)c(Oc3ccnc(C(F)(F)F)c3)c(F)c2)cc2n1CC1OCCN21 (single isomer, unassigned) [Example E164, 6-((3,5-difluoro-4-((2-(trifluoromethyl)pyridin-4-yl)oxy)benzyl)oxy)-10,10a-dihydro-2H-oxazolo[3′,2′:3,4]imidazo[1,2-c]pyrimidin-8(3H)-one]
CN1c2cc(OCc3cccc(F)c3)nc(=O)n2CC12CCC2 [Example 413]
CN1c2cc(OCc3cc(F)c(F)c(F)c3)nc(=O)n2CC12CCCC2 [Example 414, 1′-methyl-7′-((3,4,5-trifluorobenzyl)oxy)-1′H-spiro[cyclopentane-1,2′-imidazo[1,2-c]pyrimidin]-5′(3′H)-one]
CN1c2cc(OCc3cc(F)c(F)cc3F)nc(=O)n2CC12CCCC2 [Example 415, 1-methyl-7′-((2,4,5-trifluorobenzyl)oxy)-1′H-spiro[cyclopentane-1,2′-imidazo[1,2-c]pyrimidin]-5′(3′H)-one]
CN1c2cc(OCc3ccc(F)cc3F)nc(=O)n2CC12CCC2 [Example 416, 7′4(2,4-difluorobenzyhoxy)-1-methyl-1H-spiro[cyclobutane-1,2′-imidazo[1,2-c]pyrimidin]-5′(3′H)-one]
CN1c2cc(OCc3cccc(F)c3)nc(=O)n2CC12CCCCC2 [Example 417]
CN1c2cc(OCc3cccc(F)c3)nc(=O)n2CC12CCCC2 [Example 418]
CN1c2cc(OCc3ccc(F)cc3F)nc(=O)n2CC12CCCC2 [Example 419, 7′4(2,4-difluorobenzyhoxy)-1-methyl-1H-spiro[cyclopentane-1,2′-imidazo[1,2-c]pyrimidin]-5′(3′H)-one]
CN1c2cc(OCc3cccc(F)c3F)nc(=O)n2CC12CCC2 [Example 420, 7′4(2,3-difluorobenzyhoxy)-1-methyl-1H-spiro[cyclobutane-1,2′-imidazo[1,2-c]pyrimidin]-5′(3′H)-one]
CN1c2cc(OCc3cc(F)c(F)c(F)c3)nc(=O)n2CC12CCCCC2 [Example 422, 1′-methyl-7′-((3,4,5-trifluorobenzyl)oxy)-1′H-spiro[cyclohexane-1,2′-imidazo[1,2-c]pyrimidin]-5′(3′H)-one]
CN1c2cc(OCc3cc(F)c(F)c(F)c3)nc(=O)n2CC12CCC2 [Example 423, 1′-methyl-7′-((3,4,5-trifluorobenzyl)oxy)-1′H-spiro[cyclobutane-1,2′-imidazo[1,2-c]pyrimidin]-5′(3′H)-one]
CN1c2cc(OCc3cccc(F)c3F)nc(=O)n2CC12CCCCC2 [Example 425, 7′4(2,3-difluorobenzyhoxy)-1-methyl-1H-spiro[cyclohexane-1,2′-imidazo[1,2-c]pyrimidin]-5′(3′H)-one]
CN1c2cc(OCc3cccc(F)c3F)nc(=O)n2CC12CCCC2 [Example 426, 7′4(2,3-difluorobenzyhoxy)-1-methyl-1H-spiro[cyclopentane-1,2′-imidazo[1,2-c]pyrimidin]-5′(3′H)-one]
CN1c2cc(OCc3ccc(F)cc3F)nc(=O)n2CC12CCCCC2 [Example 427, 7′4(2,4-difluorobenzyhoxy)-1-methyl-1H-spiro[cyclohexane-1,2′-imidazo[1,2-c]pyrimidin]-5′(3′H)-one]
CN1c2cc(OCc3cc(F)c(F)cc3F)nc(=O)n2CC12CCCCC2 [Example 428, 1-methyl-7′-((2,4,5-trifluorobenzyl)oxy)-1′H-spiro[cyclohexane-1,2′-imidazo[1,2-c]pyrimidin]-5′(3′H)-one]
CN1c2cc(OCc3cc(F)c(F)cc3F)nc(=O)n2CC12CCC2 [Example 429, 1-methyl-7′-((2,4,5-trifluorobenzyl)oxy)-1′H-spiro[cyclobutane-1,2′-imidazo[1,2-c]pyrimidin]-5′(3′H)-one]
O=c1nc(OCc2ccc(F)cc2)cc2n1CC1CCCCN21 (centres unmarked) [Example E1, 3-((4-Fluorobenzyl)oxy)-6,7,8,9,9a,10-hexahydro-1H-pyrido[1,2′:3,4]imidazo[1,2-c] pyrimidin-1-one trifluoroacetate salt]
O=c1nc(OCc2cc(F)c(F)c(F)c2)cc2n1CC1CCCCN21 (centres unmarked) [Example E2, 3-((3,4,5-Trifluorobenzyl)oxy)-6,7,8,9,9a,10-hexahydro-1H-pyrido[1′,2′:3,4]imidazo[1,2-c] pyrimidin-1-one]
O=c1nc(OCc2cc(F)cc(F)c2)cc2n1CC1CCCCN21 (centres unmarked) [Example E3, 3-((3,5-Difluorobenzyl)oxy)-6,7,8,9,9a,10-hexahydro-1H-pyrido[1′,2′:3,4]imidazo-[1,2-c] pyrimidin-1-one]
O=c1nc(OCc2ccc(F)c(F)c2)cc2n1CC1CCCCN21 (centres unmarked) [Example E5, 3-((3,4-Difluorobenzyl)oxy)-6,7,8,9,9a,10-hexahydro-1H-pyrido[1′,2′:3,4]imidazo[1,2-c] pyrimidin-1-one]
N#Cc1cccc(COc2cc3n(c(=O)n2)CC2CCCCN32)c1 (centres unmarked) [Example E6, 3-(((1-Oxo-6,7,8,9,9a,10-hexahydro-1H-pyrido[1′,2′:3,4]imidazo[1,2-c]pyrimidin-3-yl)oxy)methyl)benzonitrile]
O=c1nc(OCc2ccc(F)cc2F)cc2n1CC1CCCCN21 (centres unmarked) [Example E8, 3-((2,4-Difluorobenzyl)oxy)-6,7,8,9,9a,10-hexahydro-1H-pyrido[1′,2′:3,4]imidazo[1,2-c] pyrimidin-1-one]
N#Cc1cc(Oc2ccc(COc3cc4n(c(=O)n3)CC3CCCCN43)cc2F)ccc1Cl (centres unmarked) [Example E11, 2-Chloro-5-(2-fluoro-4-(((1-oxo-6,7,8,9,9a,10-hexahydro-1H-pyrido[1′,2′:3,4]imidazo[1,2-c]pyrimidin-3-yl)oxy)methyl)phenoxy)benzonitrile]
N#Cc1cc(COc2cc3n(c(=O)n2)CC2CCCCN32)ccc1Oc1cccc(C(F)(F)F)c1 (centres unmarked) [Example E12, 5-(((1-Oxo-6,7,8,9,9a,10-hexahydro-1H-pyrido[1′,2′:3,4]imidazo[1,2-c]pyrimidin-3-yl)oxy)methyl)-2-(3-(trifluoromethyl)phenoxy)benzonitrile]
N#Cc1cc(F)cc(COc2cc3n(c(=O)n2)CC2CCCCN32)c1 (centres unmarked) [Example E15, 3-Fluoro-5-(((1-oxo-6,7,8,9,9a,10-hexahydro-1H-pyrido[1′,2′:3,4]imidazo[1,2-c]pyrimidin-3-yl)oxy)methyl)benzonitrile]
O=c1nc(OCc2ccc(Oc3ccnc(C(F)(F)F)c3)c(F)c2)cc2n1CC1CCCCN21 (centres unmarked) [Example E17, 3-((3-Fluoro-4-((2-(trifluoromethyl)pyridin-4-yl)oxy)benzyl)oxy)-6,7,8,9,9a,10-hexahydro-1H-pyrido[1′,2′:3,4]imidazo[1,2-c]pyrimidin-1-one]
O=c1nc(OCc2ccc(Oc3ccc(F)c(F)c3)c(F)c2)cc2n1CC1CCCCN21 (centres unmarked) [Example E18, 3-((4-(3,4-Difluorophenoxy)-3-fluorobenzyl)oxy)-6,7,8,9,9a,10-hexahydro-1H-pyrido[1′,2′:3,4]imidazo[1,2-c]pyrimidin-1-one]
N#Cc1cc(COc2cc3n(c(=O)n2)CC2CCCCN32)ccc1Oc1ccc(F)c(F)c1 (centres unmarked) [Example E19, 2-(3,4-Difluorophenoxy)-5-(((1-oxo-6,7,8,9,9a,10-hexahydro-1H-pyrido[1′,2′:3,4]imidazo-[1,2-c]pyrimidin-3-yl)oxy)methyl)benzonitrile]
N#Cc1ccc(Oc2ccc(COc3cc4n(c(=O)n3)CC3CCCCN43)cc2C#N)cc1Cl (centres unmarked) [Example E20, 2-Chloro-4-(2-cyano-4-(((1-oxo-6,7,8,9,9a,10-hexahydro-1H-pyrido[1′,2′:3,4]imidazo[1,2-c]pyrimidin-3-yl)oxy)methyl)phenoxy)benzonitrile]
O=c1nc(OCc2cc(F)c(Oc3cncc(C(F)(F)F)c3)c(F)c2)cc2n1CC1CCCCN21 (centres unmarked) [Example E21, 3-((3,5-Difluoro-4-((5-(trifluoromethyl)pyridin-3-yl)oxy)benzyl)oxy)-6,7,8,9,9a,10-hexahydro-1H-pyrido[1′,2′:3,4]imidazo[1,2-c]pyrimidin-1-one]
O=c1nc(OCc2ccc(Oc3ccc(C(F)(F)F)nc3)c(F)c2)cc2n1CC1CCCCN21 (centres unmarked) [Example E22, 3-((3-Fluoro-4-((6-(trifluoromethyl)pyridin-3-yl)oxy)benzyl)oxy)-6,7,8,9,9a,10-hexahydro-1H-pyrido[1′,2′:3,4]imidazo[1,2-c]pyrimidin-1-one]
